Screen size: about 580,000 compounds; about 6,100 (1.1%) were called active. The shares of active, inactive and inconclusive entries below differ from those in the screen. The call rests on the fitted dose curve; in most records, active means well fitted inhibition curve with a large enough effect; inconclusive means small, poorly fitted or top-dose-only effect, or another doubt; inactive means no such curve, though single readings can be large or run the other way. Potencies beside an inconclusive call are fits to weak or partial responses and may not hold up.
Target: Polyunsaturated fatty acid lipoxygenase ALOX12 (Homo sapiens) (UniProt P18054)
Assay: Primary qHTS assay for inhibitors of human arachidonate 12S-lipoxygenase (ALOX12): Round 2
Details: purified 12hLO, xylenol orange hydroperoxide absorbance; activity change, negative = inhibition: at 108 µM (top of the series) unless noted
Source text: Assay Provider: Theodore R. Holman Ph.D. University of California, Santa Cruz, California Human lipoxygenase 12hLO is a member of the closely related lipoxygenase family of enzymes which catalyze the site-specific oxidation of arachidonic acid to various hormone precursor molecules and as such is a candidate for drug development in a variety of disease areas, such as cancer and inflammation. Inhibition of 12hLO activity was screened by utilizing arachidonic acid as a substrate. The extent of hydroperoxide product formation was measured by a secondary chromogenic reaction in which xylenol orange (XO, Sigma-Aldrich, cat. number 39,818-7) reacts with the ferric ions produced from the reaction between the hydroperoxide and ferrous ions. The Fe (III)-XO complex is characterized with red-shifted absorbance at 560 nm. A purified preparation of human 12hLO was supplied by Dr. Holman laboratory, University of California, Santa Cruz.
PROTOCOL TABLE SEQUENCE No. (e.g., 1, 2, 3, etc.); […] (e.g., Cells, Incubation, Reagent, etc.); VALUE; DESCRIPTION 1; Enzyme; 3 uL; 150 nM 12hLO enzyme solution dispensed in 1536-well Greiner black, clear bottom plates. 2; Compound; 23 nL; compounds and controls were added. 3; Incubate; 15 min; room temperature. 4; Substrate; 1 uL; 40 uM arachidonic acid (final concentration). 5; Incubate; 30 min; room temperature. 6; Reagent; 4 uL; Fe-XO solution was added to each well. 7; Incubation; 30 min; room temperature 8; Detector; absorbance; Read 1 at 405 nm absorbance using ViewLux (Perkin-Elmer) CCD imager. 9; Detector; absorbance; Read 2 at 573 nm absorbance using ViewLux (Perkin-Elmer) CCD imager. NOTES (numbers refer to sequence above) 1; 150 nM 12hLO (final concentration) in buffer solution (25 mM Hepes, 0.01% Triton X-100, pH 7.0) was dispensed in columns 1, 2, 5-48. Column 1 is neutral (100% activity). Buffer only was dispensed in columns 3 and 4 as no enzyme negative controls. The plates were covered with metal lids with gas-exchange holes. 2; Compounds were pin transferred via a Kalypsys Pin Tool (Wako USA) in column 5-48. Control compound was transferred in column 2, titration of nordihydroguaiaretic acid (NDGA, Sigma-Aldrich, N5023) with top concentration of 20 mM in DMSO then 1:3 dilution in duplicate. Dilution factor of 23 nL into 4 uL final assay volume. 3; Covered assay plates were incubated for 15 min at room temperature. 4; Substrate was added to start the reaction; 40 uM arachidonic acid (Sigma-Aldrich, St. Louis, MO) was dispensed throughout the plate. 6; Chromogenic detection reagent solution (divalent iron/xylenol orange, Fe-XO) was added to each well: 200 uM xylenol orange, 300 uM ferrous ammonium sulfate prepared freshly in 50 mM sulfuric acid. 8, 9; Two absorbance readouts were obtained at 405 nm and at 573 nm using a ViewLux high-throughput CCD plate imager (Perkin-Elmer). The 573 to 405 (Read 2 / Read 1) absorbance ratio was used to compute reaction progress.
On the % scale 0 is the no-effect control and ±100 the full control effect; potency means the concentration at half of the fitted maximal effect.

Protein sequences, listed by entry. Tags and fused reporters are not part of them. Lines headed by an entry give the natural chain unless they say otherwise; changes in a name come on top.
UniProt P18054: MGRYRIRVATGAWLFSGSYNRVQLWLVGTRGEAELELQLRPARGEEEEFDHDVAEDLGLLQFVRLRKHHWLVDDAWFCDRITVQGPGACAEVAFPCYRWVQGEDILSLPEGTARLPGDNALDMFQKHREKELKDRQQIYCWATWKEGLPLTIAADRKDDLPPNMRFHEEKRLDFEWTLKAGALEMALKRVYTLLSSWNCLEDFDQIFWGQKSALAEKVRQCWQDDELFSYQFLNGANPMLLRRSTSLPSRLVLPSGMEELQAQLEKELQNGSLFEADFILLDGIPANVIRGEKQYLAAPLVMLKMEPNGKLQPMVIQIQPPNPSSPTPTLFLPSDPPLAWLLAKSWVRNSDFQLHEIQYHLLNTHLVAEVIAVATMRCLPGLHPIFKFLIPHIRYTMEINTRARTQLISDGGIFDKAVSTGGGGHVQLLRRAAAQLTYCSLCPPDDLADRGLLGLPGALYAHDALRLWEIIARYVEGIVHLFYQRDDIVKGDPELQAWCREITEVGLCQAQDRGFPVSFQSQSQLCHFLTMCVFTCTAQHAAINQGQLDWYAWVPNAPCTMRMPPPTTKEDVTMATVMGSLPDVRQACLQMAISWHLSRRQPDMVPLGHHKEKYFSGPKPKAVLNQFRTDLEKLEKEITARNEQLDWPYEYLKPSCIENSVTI

SMILES | Potency | activity change, negative = inhibition
Cc1ccc2nc(C(C)(C)C)c(Cc3cccc(F)c3)n2c1 | inconclusive: 50.1 µM [inhibitor, partial curve, poor fit] | 
COc1cccc(C2C(C(=O)Nc3ccccc3OC)=C(C)Nc3nc4ccccc4n32)c1 (stereo unspecified) | inactive | 
COc1cccc(CN2CCN(C(c3ccccc3)c3ccccc3)CC2)c1O | inconclusive: 7.94 µM [inhibitor, full curve] | 
CCOc1ccc(/C(O)=C2\C(=O)C(=O)N(c3ccc(OC)cc3)C2c2ccccc2[N+](=O)[O-])cc1 (stereo unspecified) | inconclusive: 35.5 µM [inhibitor, single point] | 
O=C(O)CCNc1ccc(NCCC(=O)O)c2c1C(=O)c1ccccc1C2=O | inactive | 
CCNC(=O)C1CCCN(Cc2ccc(OCc3ccccc3)cc2)CC1 (stereo unspecified) | inconclusive: 100 µM [inhibitor, single point] | 
O=C1c2ccccc2C(c2nnnn2Cc2ccccc2)N1CCc1c[nH]c2ccccc12 (stereo unspecified) | inactive | 
O=C(CCc1ncc(-c2ccccc2Cl)o1)NCC1(N2CCCCC2)CCCCC1 | inconclusive: 35.5 µM [inhibitor, partial curve, poor fit] | 
COc1cccc(CN2CC(C(=O)NCCN3CCOC3=O)CCC2=O)c1 (stereo unspecified) | inactive | 
CCOC(=O)c1sc(NC(=O)CSCc2c(C)noc2C)nc1C | inconclusive: 70.8 µM [inhibitor, partial curve, poor fit] | 
Cc1ccc(-c2csc(/C(C#N)=C/c3ccccc3Cl)n2)cc1 | inconclusive: 56.2 µM [inhibitor, partial curve, poor fit] | 
CCN1CCN(S(=O)(=O)c2ccc(OC)c(NC(=O)c3ccccc3)c2)CC1 |  | inconclusive: -36.1% [inhibitor]
CCCNc1nc2ccccc2nc1C(=O)Nc1cccc(OC)c1 | inconclusive: 44.7 µM [inhibitor, partial curve, poor fit] | 
Cc1[nH]c2ccccc2c1C1c2ccccc2C(=O)N1CC(=O)N1CCN(C=O)CC1 (stereo unspecified) | inactive | 
COc1ccc(CN2CCCN(C)CC2)c(OC)c1C | inactive | 
c1coc(CNCc2cccc3[nH]ccc23)c1 | inconclusive: 39.8 µM [inhibitor, partial curve, poor fit] | 
CCC(C(=O)Nc1ccc(N(C)C)cc1)n1nnc2ccccc2c1=O (stereo unspecified) | inconclusive: 35.5 µM [inhibitor, partial curve, poor fit] | 
O=C(O)CSCc1ccc(C(=O)O)o1 | inconclusive: 56.2 µM [inhibitor, partial curve, poor fit] | 
Cc1ccc(S(=O)(=O)/C=C/CS(=O)(=O)c2ccc(C)cc2)cc1 | inactive | 
COc1ccc(Br)cc1CNC(=O)C1CCN(C(=O)N(C)C)CC1 | inactive | 
Cc1ncc(-c2ccc(C)c(S(=O)(=O)Nc3ccc(Cl)cc3F)c2)o1 | inconclusive: 79.4 µM [inhibitor, partial curve, poor fit] | 
Cc1[nH]n(-c2ccccc2)c(=O)c1N=Nc1ccccc1O | inactive | 

SMILES | Potency | activity change, negative = inhibition
CCn1c(=O)c2cc(C(=O)N(CC(C)C)CC(C)C)sc2c2ccccc21 | inconclusive: 0.447 µM [inhibitor, full curve, poor fit] | 
COc1cc(C(=O)Nc2ccccc2C2COC(=O)C2=N)cc(OC)c1OC (stereo unspecified) | inactive | 
COc1cc2c3nnc(-c4ccc(F)cc4)c-3cn(Cc3ccccc3F)c2cc1OC | inactive | 
CC1CCCC(NC(=O)COC(=O)COc2ccc(Br)cc2)C1C (stereo unspecified) | inconclusive: 112 µM [inhibitor, single point] | 
Cc1ccc2[nH]c3c(c2c1)CN(C(=O)CN1CCCc2ccccc21)CC3 | inconclusive: 100 µM [inhibitor, single point] | 
COC(=O)[C@@]12C[C@@H](CC(=O)NCc3cccc(C(F)(F)F)c3)C(=O)N(Cc3ccco3)C1=CCC(C)(C)C2 | inconclusive: 25.1 µM [inhibitor, partial curve] | 
O=C1NC[C@@H](CCCCN2C[C@H](Cc3ccccc3)N(CCC3CCCCC3)C(=O)C2=O)N(Cc2ccccc2)C1=O | inconclusive: 7.08 µM [inhibitor, partial curve, poor fit] | 
O=C1NC(C(=O)O)=CC(c2ccc([N+](=O)[O-])cc2)N1 (stereo unspecified) | inconclusive: 0.631 µM [inhibitor, partial curve, poor fit] | 
CCNC(=O)C1CCCN(C(=O)c2ccc(C#N)cc2)CC1 (stereo unspecified) | inactive | 
CCCn1c(=O)c(C(=O)Nc2ccccc2C(=O)OCC)c(O)c2ccccc21 | inactive | 
Cc1cccc(CN2CCN(C3CN(Cc4cn(Cc5ccccc5)nn4)S(=O)(=O)C3)CC2)c1 (stereo unspecified) | inconclusive: 126 µM [inhibitor, partial curve, poor fit] | 
CCC(C)(C)C1CCC(NC(=O)Cn2nc(C)c3ccccc3c2=O)CC1 (stereo unspecified) | inconclusive: 22.4 µM [inhibitor, full curve, poor fit] | 
CCc1cccc(NC(=O)c2cccc(S(=O)(=O)N3CCOCC3)c2)c1 | inactive | 
O=C(O)c1cccn2c(=O)c3ccccc3nc12 | inconclusive: 35.5 µM [inhibitor, single point] | 
CCN(CC)Cc1oc(-c2ccccc2)cc1C(=O)O | inconclusive: 56.2 µM [inhibitor, partial curve, poor fit] | 
Cn1cc(CNC(=O)C[C@@H]2C[C@H]3O[C@H](CNC4Cc5ccccc5C4)[C@@H](O)[C@H]3O2)cn1 | inconclusive: 11.2 µM [inhibitor, full curve] | 
COc1cc(OC)c(-c2sc(Nc3ccccc3)n[n+]2-c2ccc(F)cc2)cc1OC | inactive | 
CC(C)C(=O)Nc1cccc(Cl)c1Cl | inactive | 
CC1CCCCC1NC(=O)CCc1nc2sc3c(c2c(=O)[nH]1)CCCC3 (stereo unspecified) | inconclusive: 56.2 µM [inhibitor, partial curve, poor fit] | 
COc1ccccc1CC(=O)Nc1cccc(C(=O)NC(C)(C)C)c1 | inactive | 
O=C(O)CC(C(=O)O)N1C(=O)/C(=C/C=C/c2ccco2)SC1=S (stereo unspecified) | inconclusive: 50.1 µM [inhibitor, partial curve, poor fit] | 
Clc1cccc(N/N=C/c2ccc(N3CCOCC3)s2)c1 | inconclusive: 5.01 µM [inhibitor, full curve, poor fit] | 

Reprinted from the results shown (4 entries):
SMILES | Potency | activity change, negative = inhibition
COc1ccc(CN2CCCN(C)CC2)c(OC)c1C | inactive | 
c1coc(CNCc2cccc3[nH]ccc23)c1 | inconclusive: 39.8 µM [inhibitor, partial curve, poor fit] | 
CCC(C(=O)Nc1ccc(N(C)C)cc1)n1nnc2ccccc2c1=O (stereo unspecified) | inconclusive: 35.5 µM [inhibitor, partial curve, poor fit] | 
O=C(O)CSCc1ccc(C(=O)O)o1 | inconclusive: 56.2 µM [inhibitor, partial curve, poor fit] | 

(list continues)

SMILES | Potency | activity change, negative = inhibition
Cc1ccc(C)c(S(=O)(=O)N2CCN(C(=O)Cn3[nH]c(=O)c4ccccc4c3=O)CC2)c1 | inconclusive: 79.4 µM [inhibitor, single point] | 
COC(=O)[C@]12CCCCC=C1N(Cc1ccco1)C(=O)[C@H](CC(=O)NCCc1ccccc1OC)C2 | inconclusive: 0.282 µM [inhibitor, full curve, poor fit] | 
CN(C)c1ncc2nc(CCc3ccccc3)c(=O)n(C[C@H]3CCCO3)c2n1 | inconclusive: 31.6 µM [inhibitor, partial curve, poor fit] | 
COc1ccc(-c2nc(=S)c3c(n2CCN2CCOCC2)CC(C)(C)OC3)cc1 | inconclusive: 39.8 µM [inhibitor, partial curve, poor fit] | 
CN(C)c1cc(-c2cccc(C(F)(F)F)c2)oc(=O)c1Cl | inconclusive: 14.1 µM [inhibitor, partial curve, poor fit] | 
COc1cc(C2CC(=O)Nc3nc(-c4ccccc4)[nH]c(=O)c32)cc(OC)c1O (stereo unspecified) | inconclusive: 10 µM [inhibitor, full curve, poor fit] | 
Cc1noc2ncnc(N3CCCCC3)c12 | inactive | 
O=C(Nc1ccc(F)c(Cl)c1)C1Cc2c(-c3ccco3)ccnc2O1 (stereo unspecified) | inconclusive: 56.2 µM [inhibitor, partial curve, poor fit] | 
O=C([C@H]1O[C@H](CCN2CCN(Cc3ccccc3)CC2)CC[C@@H]1O)N1CCN(c2ccc(F)cc2)CC1 | inactive | 
O=C(O)CCc1nn2c3ccccc3n(CCN3CCCCC3)c2nc1=O | inactive | 
Cc1occc1C(=O)N1CCC2(CC1)N=C(CC(C)C)NC2=O | inactive | 
Cc1ccc(N2C(=O)[C@@H]3[C@H](C2=O)[C@H]2C=CC=NN2[C@@H]3C(=O)Nc2ccccc2)cc1 | inconclusive: 7.94 µM [inhibitor, full curve, poor fit] | 
O=C(CCS(=O)Cc1cccc2ccccc12)Nc1ccccc1 (stereo unspecified) | inconclusive: 50.1 µM [inhibitor, partial curve, poor fit] | 
COc1ccccc1CN1[C@@H](CC(C)=O)c2cc(C(F)(F)F)ccc2S1(=O)=O | inconclusive: 70.8 µM [inhibitor, partial curve, poor fit] | 
C[C@H](CO)N1C[C@H](C)[C@@H](CN(C)S(C)(=O)=O)OCc2cn(nn2)CCCC1=O | inactive | 
Nc1nc2c(c(=O)[nH]1)N(C=O)[C@H](CNc1ccc(C(=O)N[C@@H](CCC(=O)O)C(=O)O)cc1)CN2 | inconclusive: 31.6 µM [inhibitor, partial curve, poor fit] | 
CC(CCN1CCC(C(O)(c2ccccc2)c2ccccc2)CC1)Oc1cc(F)cc(F)c1 (stereo unspecified) | inconclusive: 44.7 µM [inhibitor, partial curve, poor fit] | 
OCCN(Cc1ccccc1)Cc1ccc(Cl)cc1Cl | inconclusive: 1.12 µM [inhibitor, full curve] | 
O=C1SC(c2ccccc2)=C/C1=C\N1CCCCC1 | inconclusive: 31.6 µM [inhibitor, partial curve, poor fit] | 
O=c1[nH]c2ccccc2nc1-c1ccc(Cl)cc1 | inactive | 
COc1ccc(CNC(=O)CN2C(=O)COc3ccc(S(=O)(=O)NC4CCCC4)cc32)cc1 |  | inconclusive: -31.4% [inhibitor]
CCn1c(=O)c(-c2noc(C(=O)NCc3ccc(C)o3)n2)nn(-c2ccccc2)c1=O | inconclusive: 141 µM [inhibitor, partial curve, poor fit] | 

Reference: PubChem BioAssay AID1671190 (National Center for Advancing Translational Sciences (NCATS), 2021)
